Laboratory results reported in the supplement of paper PMC3334620.
Over roughly 33,000 sequences, “E-score (-0.5 to 0.5)” has its median near -8e-05; the highest 2% begin near 0.23. The list shows a part of the results.

These sequences were tested against T1, Nrg2 (UniProt P38082) (assay: PBM E-score (8-mer binding enrichment) (E-score (-0.5 to 0.5)); higher = stronger / more preferred TF binding). Details: protein concentration: 100 nM; construct: GST-full length.
T1 sequence: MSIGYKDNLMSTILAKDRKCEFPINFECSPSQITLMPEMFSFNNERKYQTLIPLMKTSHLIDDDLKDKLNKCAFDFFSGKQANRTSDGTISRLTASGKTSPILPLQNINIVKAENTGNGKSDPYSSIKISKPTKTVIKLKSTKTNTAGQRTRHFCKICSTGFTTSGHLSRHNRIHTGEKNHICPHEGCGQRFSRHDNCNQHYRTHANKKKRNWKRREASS
Method: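 Universal 'all 10-mer' protein binding microarrays (Agilent AMADID 015681) probed with GST-tagged S. cerevisiae TFs (full-length or DBD) made by in vitro transcription/translation (PURExpress), about 100-200 nM. Bound TF was detected with fluorescent anti-GST. Each ungapped 8-mer (which stands for itself and its reverse complement) is scored by the PBM enrichment score (E-score), a modified Wilcoxon-Mann-Whitney statistic from -0.5 to +0.5, computed with the Universal PBM Analysis Suite. Scale: above 0.35 generally sequence-specific binding.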

Row | Sequence | PBM E-score
1 | CTCATTAC | 0.0586
2 | TCCGCCAA | -0.0411
3 | GTTTACAA | 0.00551
4 | ATGGACCC | 0.206
5 | ATTATACG | 0.252
6 | AACCCTAC | 0.0389
7 | GGCTCGTA | -0.034
8 | TAGGGTGA | 0.0361
9 | TCCTCTAA | -0.183
10 | TAACCCGA | -0.0862
11 | TACTACGA | 0.122
12 | CCAGACAA | -0.141
13 | CTACCCTA | -0.0515
14 | CCGAGTAA | 0.0101
15 | CTGAAGAC | -0.082
16 | GACTGCAC | -0.21
17 | ACGACTTA | -0.17
18 | GGTCACAC | -0.278
19 | ATCCCGTA | 0.0853
20 | AGTCCAGA | -0.106
21 | AGGAGCTA | -0.282
22 | CGGAGATA | 0.0572
23 | AAGGGATC | 0.135
24 | CAGCACCG | -0.027
25 | ACAAATAC | 0.225

Shown with each value named: entries from further up
TAGGGTGA
  PBM E-score: 0.0361
TCCTCTAA
  PBM E-score: -0.183
TAACCCGA
  PBM E-score: -0.0862
TACTACGA
  PBM E-score: 0.122

Additional records:

Row | Sequence | PBM E-score
26 | CGTCTCCA | 0.21
27 | ATCGGGAC | -0.178
28 | CGCAAATA | 0.0777
29 | CCCTCACC | -0.0172
30 | GATTTCAC | 0.127
31 | GGGCGTCA | 0.0318
32 | GCCGCCAA | -0.038
33 | ACGAAATC | 0.203
34 | AATTCAAT | 0.129
35 | ATCAGCAC | 0.0345
36 | CAATCGCC | 0.00157
37 | AGCGATCG | 0.24
38 | GAACATGC | -0.0112
39 | AGTCGAAC | 0.105
40 | ACCCAATA | -0.0384
41 | ATAACATG | 0.024
42 | CAACACAA | 0.118
43 | AGCGCTGC | -0.0837
44 | AATGGGCT | 0.00645
45 | TGGGGTAA | 0.126
46 | ACGCCCTG | 0.131
47 | CATGCGCA | 0.164
48 | GCGCGGCC | 0.0897
49 | AACCGGAA | 0.0485
50 | CCGACGCA | -0.178

Row | Sequence | PBM E-score
51 | CCGCGTCG | 0.0424
52 | AAGAGGGG | -0.0386
53 | GCTTTAAA | -0.0961
54 | GATAATAC | 0.151
55 | ACGCAGGA | -0.0901
56 | AATGTAAG | 0.124
57 | ATACATAT | 0.235
58 | GGCCGTAA | -0.0803
59 | ATAGGAGA | -0.173
60 | AGCTAGAT | 0.0416
61 | CCCCTTGA | 0.2
62 | TAGGTTCA | 0.0602
63 | AAGTGTCG | -0.0215
64 | CGTCGGTC | 0.00408
65 | TACTTCCA | 0.136
66 | ATCCACAC | 0.0612
67 | GAGCACGA | 0.0776
68 | CGCGCTAG | 0.03
69 | ACTAATCG | 0.278
70 | GCCATACA | 0.0705
71 | GATGATCA | -0.00173
72 | ACTAGGGG | 0.0946
73 | TGCCTACA | -0.102
74 | AGGTATAA | 0.117
75 | CGTCGTGC | 0.0843

Row | Sequence | PBM E-score
76 | GCGGGGAC | 0.054
77 | GTGGTTAA | 0.0728
78 | AATGTAAA | 0.131
79 | GTTAGCTA | -0.0504
80 | ATCAAATG | 0.1
81 | GCAGACAC | 0.0688
82 | GTTAAGCA | 0.011
83 | CCGGAATA | 0.00475
84 | AGAATGCA | 0.138
85 | CGGCATGC | 0.0842
86 | ACCTATCA | -0.0524
87 | CTATACGA | -0.0599
88 | CACGGCGG | -0.0766
89 | AAGATAAG | 0.014
90 | ACCTAGTA | -0.208
91 | TTCTGCAA | 0.149
92 | ATACGCAT | 0.145
93 | ATATGCTC | 0.0262
94 | CCTGGTCA | 0.0654
95 | CACGCATG | -0.102
96 | AGATCGTG | -0.0506
97 | AAGGCCCA | -0.13
98 | AATCATCT | -0.0427
99 | CATACCGA | -0.154
100 | CCCCCAGC | -0.342

Row | Sequence | PBM E-score
101 | AGTCTGCC | -0.162
102 | AACCGAAA | 0.0409
103 | AAGACTTA | -0.351
104 | AGACCTGC | -0.253
105 | CGACTGGA | 0.00157
106 | GGTCCCAA | -0.0386
107 | CCATATGG | 0.0558
108 | AAGCAGGA | 0.0194
109 | TCTGCCAA | -0.2
110 | GGCCTTAA | 0.00956
111 | AATGCGGA | 0.102
112 | AGACGATA | 0.023
113 | GGGCTGTA | -0.128
114 | TACCGGTA | -0.0968
115 | ATGAGAGA | 0.172
116 | ATGTGACC | -0.00755
117 | AACCAAGT | 0.157
118 | CTGAGTCA | 0.0517
119 | TATCAGGA | 0.0358
120 | ACAGGTAC | -0.0791
121 | AAATAGTT | 0.113
122 | AACGCGCC | -0.0139
123 | CAAACATC | 0.00976
124 | CCCATTGC | -0.116
125 | GCGGACGC | -0.0733

Row | Sequence | PBM E-score
126 | CTCGACTC | 0.0209
127 | ACCTACAA | 0.0812
128 | GAAATTCC | 0.0392
129 | ATGGTAAG | 0.0032
130 | CACCCTAA | 0.102
131 | GCGCTCAA | -0.115
132 | CATTCTGA | 0.0677
133 | GGATGGAC | -0.065
134 | ACAGTTCA | 0.121
135 | CGCCTCCA | -0.0712
136 | ATCACTGC | 0.155
137 | GTCTGTAA | 0.0552
138 | CTACCCGC | -0.0291
139 | CCTCCCGA | -0.265
140 | TCACTGGA | -0.0905
141 | GAACGATC | -0.0973
142 | AGTTAAAC | 0.123
143 | AACCATGC | 0.103
144 | AAAGTCAA | 0.0628
145 | ACGGCCAG | -0.0637
146 | ACCACATG | 0.121
147 | CCGGAACA | -0.0209
148 | GCTCTGAC | -0.138
149 | GGCCCAAC | -0.0164
150 | TAAATGAA | 0.0819

Given in markdown: part of the list above

| Row | Sequence | PBM E-score |
| --- | --- | --- |
| 128 | GAAATTCC | 0.0392 |
| 129 | ATGGTAAG | 0.0032 |

(cont.)

Row | Sequence | PBM E-score
151 | ACCCCGTC | -0.171
152 | ACTTAGGC | -0.184
153 | CTGCCAAC | -0.0286
154 | CACTCTAG | -0.166
155 | CCCGGAGG | -0.366
156 | GCTGTCAC | -0.083
157 | CGGTTCCA | -0.11
158 | AGGGTTTC | 0.0499
159 | GATCACAC | -0.0126
160 | CTGAAAAA | -0.0457
161 | AGAACGGG | -0.029
162 | ACACCGCC | -0.134
163 | ACAACGTA | 0.0175
164 | CCTTATTC | -0.0168
165 | AGGGTTAC | -0.14
166 | CGGCCCCG | -0.232
167 | AAATCAAT | 0.13
168 | GCAGGCAA | -0.0434
169 | CTATCTAA | 0.0964
170 | CGATGCAC | 0.00525
171 | AACAAGAT | 0.112
172 | CAACCGCG | 0.271
